Experimental data: the supplement of paper PMC10032668
This is one part of the list. Only hits are listed; about a third recur on repeated control peptides.

Sequences of proteins named here, by UniProt entry; tags and fusion partners are left off.
EXOSC4, Q9NPD3, UniProt Q9NPD3, whole entry: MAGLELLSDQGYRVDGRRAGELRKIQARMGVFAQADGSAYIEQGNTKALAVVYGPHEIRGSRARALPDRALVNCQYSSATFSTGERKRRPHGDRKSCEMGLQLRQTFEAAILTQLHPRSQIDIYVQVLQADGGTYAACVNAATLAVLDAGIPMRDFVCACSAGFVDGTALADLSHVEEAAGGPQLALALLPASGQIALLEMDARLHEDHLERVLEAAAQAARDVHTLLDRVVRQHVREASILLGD
MORF4L2, Q15014, UniProt Q15014, whole entry: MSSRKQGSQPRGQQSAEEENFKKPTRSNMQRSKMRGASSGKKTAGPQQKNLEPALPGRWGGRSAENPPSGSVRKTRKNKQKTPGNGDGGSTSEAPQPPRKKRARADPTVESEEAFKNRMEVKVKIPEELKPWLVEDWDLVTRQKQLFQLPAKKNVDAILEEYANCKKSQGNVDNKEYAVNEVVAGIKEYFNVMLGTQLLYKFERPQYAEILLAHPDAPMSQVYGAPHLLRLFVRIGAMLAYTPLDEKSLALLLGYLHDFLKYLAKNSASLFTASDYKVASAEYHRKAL
NCAPH, Q15003, UniProt Q15003, whole entry: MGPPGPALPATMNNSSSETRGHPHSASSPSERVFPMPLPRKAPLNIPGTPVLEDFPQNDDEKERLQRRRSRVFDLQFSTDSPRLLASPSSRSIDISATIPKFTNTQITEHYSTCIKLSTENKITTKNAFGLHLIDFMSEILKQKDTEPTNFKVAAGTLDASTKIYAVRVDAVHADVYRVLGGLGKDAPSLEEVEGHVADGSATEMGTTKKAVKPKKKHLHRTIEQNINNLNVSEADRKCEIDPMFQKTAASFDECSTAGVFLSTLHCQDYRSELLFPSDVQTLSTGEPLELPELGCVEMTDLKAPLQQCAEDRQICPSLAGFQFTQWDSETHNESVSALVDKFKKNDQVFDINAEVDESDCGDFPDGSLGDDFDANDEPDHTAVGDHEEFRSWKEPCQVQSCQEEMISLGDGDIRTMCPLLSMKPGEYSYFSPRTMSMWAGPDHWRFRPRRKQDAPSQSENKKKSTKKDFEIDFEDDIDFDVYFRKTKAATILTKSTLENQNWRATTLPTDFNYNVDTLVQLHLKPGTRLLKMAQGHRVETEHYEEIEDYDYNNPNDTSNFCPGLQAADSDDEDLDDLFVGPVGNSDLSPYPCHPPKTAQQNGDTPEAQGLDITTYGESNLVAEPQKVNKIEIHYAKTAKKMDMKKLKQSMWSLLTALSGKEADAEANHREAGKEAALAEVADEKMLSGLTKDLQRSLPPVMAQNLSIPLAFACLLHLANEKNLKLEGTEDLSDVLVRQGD
ECPAS, Q5VYK3, UniProt Q5VYK3, whole entry: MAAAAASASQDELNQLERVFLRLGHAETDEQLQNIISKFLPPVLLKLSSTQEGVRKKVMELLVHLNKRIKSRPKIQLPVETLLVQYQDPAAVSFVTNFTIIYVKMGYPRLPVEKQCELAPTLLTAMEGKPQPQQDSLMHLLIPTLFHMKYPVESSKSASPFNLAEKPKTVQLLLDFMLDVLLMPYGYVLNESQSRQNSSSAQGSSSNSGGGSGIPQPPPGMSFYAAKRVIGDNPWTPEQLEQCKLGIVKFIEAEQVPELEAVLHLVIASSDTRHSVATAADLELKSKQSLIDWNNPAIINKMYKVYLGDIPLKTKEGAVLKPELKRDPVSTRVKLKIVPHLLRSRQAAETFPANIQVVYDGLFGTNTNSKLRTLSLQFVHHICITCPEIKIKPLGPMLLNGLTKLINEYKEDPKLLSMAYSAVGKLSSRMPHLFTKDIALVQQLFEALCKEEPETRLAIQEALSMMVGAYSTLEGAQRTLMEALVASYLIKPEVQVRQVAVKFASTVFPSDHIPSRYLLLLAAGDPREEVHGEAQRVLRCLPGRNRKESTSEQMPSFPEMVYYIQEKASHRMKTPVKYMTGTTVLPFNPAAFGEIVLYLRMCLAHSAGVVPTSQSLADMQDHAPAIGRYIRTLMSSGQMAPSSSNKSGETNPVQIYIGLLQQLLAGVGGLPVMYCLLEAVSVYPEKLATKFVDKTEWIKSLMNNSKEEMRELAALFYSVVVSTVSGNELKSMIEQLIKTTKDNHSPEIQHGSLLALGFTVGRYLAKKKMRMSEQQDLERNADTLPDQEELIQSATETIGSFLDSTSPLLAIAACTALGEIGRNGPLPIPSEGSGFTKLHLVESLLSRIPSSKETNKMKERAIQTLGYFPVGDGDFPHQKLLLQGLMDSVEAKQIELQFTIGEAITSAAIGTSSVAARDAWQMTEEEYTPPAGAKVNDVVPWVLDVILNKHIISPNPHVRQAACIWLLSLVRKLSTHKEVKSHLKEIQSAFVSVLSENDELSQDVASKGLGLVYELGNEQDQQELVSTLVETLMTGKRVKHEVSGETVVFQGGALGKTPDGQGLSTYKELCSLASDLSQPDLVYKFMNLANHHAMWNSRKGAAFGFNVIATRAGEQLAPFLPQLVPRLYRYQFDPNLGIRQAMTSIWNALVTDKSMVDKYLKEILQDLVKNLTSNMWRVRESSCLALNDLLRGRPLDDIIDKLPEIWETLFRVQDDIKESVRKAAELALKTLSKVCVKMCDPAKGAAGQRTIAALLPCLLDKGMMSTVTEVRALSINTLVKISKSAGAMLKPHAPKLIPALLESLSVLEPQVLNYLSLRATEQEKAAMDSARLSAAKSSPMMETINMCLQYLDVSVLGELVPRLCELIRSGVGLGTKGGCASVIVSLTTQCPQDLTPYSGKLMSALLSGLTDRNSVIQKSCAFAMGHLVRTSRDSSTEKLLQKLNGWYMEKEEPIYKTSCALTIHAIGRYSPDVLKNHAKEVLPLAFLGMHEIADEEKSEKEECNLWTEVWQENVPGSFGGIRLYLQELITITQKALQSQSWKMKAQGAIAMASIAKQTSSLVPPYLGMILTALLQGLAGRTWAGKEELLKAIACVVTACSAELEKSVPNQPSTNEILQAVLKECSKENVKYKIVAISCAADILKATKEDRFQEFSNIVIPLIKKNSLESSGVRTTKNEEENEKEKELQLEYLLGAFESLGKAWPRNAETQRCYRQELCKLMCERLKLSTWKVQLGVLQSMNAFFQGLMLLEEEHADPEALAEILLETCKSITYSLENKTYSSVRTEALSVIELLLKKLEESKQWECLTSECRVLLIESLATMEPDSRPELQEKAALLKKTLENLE
EIF2B1, Q14232, UniProt Q14232, whole entry: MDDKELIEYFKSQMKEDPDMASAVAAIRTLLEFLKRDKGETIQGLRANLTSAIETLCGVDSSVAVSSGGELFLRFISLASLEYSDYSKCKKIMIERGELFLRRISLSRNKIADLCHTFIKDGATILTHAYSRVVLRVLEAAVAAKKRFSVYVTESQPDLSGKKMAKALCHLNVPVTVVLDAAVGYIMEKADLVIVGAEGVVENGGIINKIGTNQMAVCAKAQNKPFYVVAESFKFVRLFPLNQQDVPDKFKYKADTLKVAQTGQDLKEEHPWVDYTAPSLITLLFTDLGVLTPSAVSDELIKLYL
EIF4B, P23588, UniProt P23588, whole entry: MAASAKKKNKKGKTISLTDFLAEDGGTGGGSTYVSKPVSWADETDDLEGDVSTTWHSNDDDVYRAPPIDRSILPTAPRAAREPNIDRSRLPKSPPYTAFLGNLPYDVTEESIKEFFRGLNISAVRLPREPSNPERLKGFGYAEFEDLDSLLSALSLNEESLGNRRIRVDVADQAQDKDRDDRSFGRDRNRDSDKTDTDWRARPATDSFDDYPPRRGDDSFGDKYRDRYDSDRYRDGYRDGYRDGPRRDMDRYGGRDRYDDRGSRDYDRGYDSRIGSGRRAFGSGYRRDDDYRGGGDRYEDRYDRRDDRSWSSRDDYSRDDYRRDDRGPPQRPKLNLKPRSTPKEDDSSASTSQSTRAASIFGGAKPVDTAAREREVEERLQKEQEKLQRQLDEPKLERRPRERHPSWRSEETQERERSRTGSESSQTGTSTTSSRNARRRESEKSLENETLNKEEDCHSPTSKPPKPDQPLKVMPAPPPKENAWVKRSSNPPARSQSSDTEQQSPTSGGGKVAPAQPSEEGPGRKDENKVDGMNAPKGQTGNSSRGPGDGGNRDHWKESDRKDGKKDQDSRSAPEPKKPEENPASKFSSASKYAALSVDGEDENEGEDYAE
GRWD1, Q9BQ67, UniProt Q9BQ67, whole entry: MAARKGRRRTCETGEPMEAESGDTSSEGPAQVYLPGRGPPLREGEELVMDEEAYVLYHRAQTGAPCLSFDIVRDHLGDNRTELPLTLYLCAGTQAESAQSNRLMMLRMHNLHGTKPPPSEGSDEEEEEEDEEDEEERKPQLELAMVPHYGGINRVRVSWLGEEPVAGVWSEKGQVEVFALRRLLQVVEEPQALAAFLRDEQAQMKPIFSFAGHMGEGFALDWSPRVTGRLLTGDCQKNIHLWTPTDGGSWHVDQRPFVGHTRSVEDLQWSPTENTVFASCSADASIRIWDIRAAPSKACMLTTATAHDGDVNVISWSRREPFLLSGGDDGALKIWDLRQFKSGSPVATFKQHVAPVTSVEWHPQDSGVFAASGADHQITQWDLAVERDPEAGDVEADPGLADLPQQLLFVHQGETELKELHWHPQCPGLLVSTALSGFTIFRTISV
NUDT21, O43809, UniProt O43809, whole entry: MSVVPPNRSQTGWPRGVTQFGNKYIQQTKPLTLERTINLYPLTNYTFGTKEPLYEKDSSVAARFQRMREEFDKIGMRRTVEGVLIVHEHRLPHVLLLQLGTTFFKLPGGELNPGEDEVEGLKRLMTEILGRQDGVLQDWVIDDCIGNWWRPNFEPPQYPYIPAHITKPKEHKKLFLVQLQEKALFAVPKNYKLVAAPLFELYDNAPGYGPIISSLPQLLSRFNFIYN
TWF1, Q12792, UniProt Q12792, whole entry: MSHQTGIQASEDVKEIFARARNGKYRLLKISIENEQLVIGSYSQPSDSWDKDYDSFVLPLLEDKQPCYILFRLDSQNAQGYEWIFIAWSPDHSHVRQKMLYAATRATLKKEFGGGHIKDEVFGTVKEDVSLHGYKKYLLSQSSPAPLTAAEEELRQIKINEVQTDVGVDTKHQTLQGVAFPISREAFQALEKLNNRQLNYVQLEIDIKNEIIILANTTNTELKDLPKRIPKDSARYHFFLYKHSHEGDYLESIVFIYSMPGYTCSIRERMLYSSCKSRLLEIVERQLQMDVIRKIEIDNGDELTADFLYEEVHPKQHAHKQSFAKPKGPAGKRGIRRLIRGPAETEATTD

Assays:
Test in all cases: PRISMA enrichment of interactor (LFQ) in peptide spot vs all other peptide spots (log2 fold change); higher = stronger / more specific binding of the interactor to the peptide
C19orf53, Q9UNZ5 = biological target: C19orf53, Q9UNZ5
Description: (§1)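 PRISMA: 15-aa overlapping tiles (offset 8 aa) of 60 microproteins, plus SOS1/GLUT1 control peptides, were spot-synthesized on cellulose membranes in triplicate. Membranes were incubated with benzonase-treated HEK293T lysate, and bound proteins were identified by LC-MS/MS with LFQ. Enrichment is the log2 fold change of each protein in one spot versus all other spots. Only interactors passing the significance cutoff are listed.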

CHTOP, Q9Y3Y2 = biological target: CHTOP, Q9Y3Y2
Description: as §1

[1] = substrate: CP, P00450
Description: as §1

GAR1, Q9NY12 = biological target: GAR1, Q9NY12
Description: as §1

POLDIP2, Q9Y2S7 = biological target: POLDIP2, Q9Y2S7
Description: as §1

ZNF22, P17026 = biological target: ZNF22, P17026
Description: as §1

CHMP2A, O43633 = biological target: CHMP2A, O43633
Description: as §1

MUC19, Q7Z5P9 = biological target: MUC19, Q7Z5P9
Description: as §1

SCP2, P22307 = biological target: SCP2, P22307
Description: as §1

BZW1, Q7L1Q6 = biological target: BZW1, Q7L1Q6
Description: as §1

C11orf98, E9PRG8 = biological target: C11orf98, E9PRG8
Description: as §1

CLTA, P09496 = biological target: CLTA, P09496
Description: as §1

CLTB, P09497 = biological target: CLTB, P09497
Description: as §1

CLTC, Q00610 = biological target: CLTC, Q00610
Description: as §1

CLTCL1, P53675 = biological target: CLTCL1, P53675
Description: as §1

CSNK1A1, P48729 = biological target: CSNK1A1, P48729
Description: as §1

CXorf56, Q9H5V9 = biological target: CXorf56, Q9H5V9
Description: as §1

DECR1, Q16698 = biological target: DECR1, Q16698
Description: as §1

EMG1, Q92979 = biological target: EMG1, Q92979
Description: as §1

EXOSC4, Q9NPD3 = biological target: EXOSC4, Q9NPD3
Description: as §1

FAM83D, Q9H4H8 = biological target: FAM83D, Q9H4H8
Description: as §1

FOCAD, Q5VW36 = biological target: FOCAD, Q5VW36
Description: as §1

GABARAPL2, P60520 = biological target: GABARAPL2, P60520
Description: as §1

MAGEB2, O15479 = biological target: MAGEB2, O15479
Description: as §1

MORF4L2, Q15014 = biological target: MORF4L2, Q15014
Description: as §1

MRPL27, Q9P0M9 = biological target: MRPL27, Q9P0M9
Description: as §1

MRPL34, Q9BQ48 = biological target: MRPL34, Q9BQ48
Description: as §1

NCAPH, Q15003 = biological target: NCAPH, Q15003
Description: as §1

NOL9, Q5SY16 = biological target: NOL9, Q5SY16
Description: as §1

PLS3, P13797 = biological target: PLS3, P13797
Description: as §1

PYCR1, P32322 = biological target: PYCR1, P32322
Description: as §1

PYCR2, Q96C36 = biological target: PYCR2, Q96C36
Description: as §1

RPS19BP1, Q86WX3 = biological target: RPS19BP1, Q86WX3
Description: as §1

TFB2M, Q9H5Q4 = biological target: TFB2M, Q9H5Q4
Description: as §1

URB1, O60287 = biological target: URB1, O60287
Description: as §1

CCAR1, Q8IX12 = biological target: CCAR1, Q8IX12
Description: as §1

CDC73, Q6P1J9 = biological target: CDC73, Q6P1J9
Description: as §1

CGN, Q9P2M7 = biological target: CGN, Q9P2M7
Description: as §1

COPG1, Q9Y678 = biological target: COPG1, Q9Y678
Description: as §1

CPS1, P31327 = biological target: CPS1, P31327
Description: as §1

DUSP9, Q99956 = biological target: DUSP9, Q99956
Description: as §1

ECD, O95905 = biological target: ECD, O95905
Description: as §1

ECPAS, Q5VYK3 = biological target: ECPAS, Q5VYK3
Description: as §1

EDC4, Q6P2E9 = biological target: EDC4, Q6P2E9
Description: as §1

EIF2B1, Q14232 = biological target: EIF2B1, Q14232
Description: as §1

EIF4B, P23588 = biological target: EIF4B, P23588
Description: as §1

ETFB, P38117 = biological target: ETFB, P38117
Description: as §1

FGF11, Q92914 = biological target: FGF11, Q92914
Description: as §1

FUBP1, Q96AE4 = biological target: FUBP1, Q96AE4
Description: as §1

GRWD1, Q9BQ67 = biological target: GRWD1, Q9BQ67
Description: as §1

HERC2, O95714 = biological target: HERC2, O95714
Description: as §1

KCNH1, O95259 = biological target: KCNH1, O95259
Description: as §1

KCTD12, Q96CX2 = biological target: KCTD12, Q96CX2
Description: as §1

LEO1, Q8WVC0 = biological target: LEO1, Q8WVC0
Description: as §1

MAGED2, Q9UNF1 = biological target: MAGED2, Q9UNF1
Description: as §1

MAP7D3, Q8IWC1 = biological target: MAP7D3, Q8IWC1
Description: as §1

NOP14, P78316 = biological target: NOP14, P78316
Description: as §1

NPHS1, O60500 = biological target: NPHS1, O60500
Description: as §1

NUDC, Q9Y266 = biological target: NUDC, Q9Y266
Description: as §1

NUDT21, O43809 = biological target: NUDT21, O43809
Description: as §1

PRDX3, P30048 = biological target: PRDX3, P30048
Description: as §1

PRPS2, P11908 = biological target: PRPS2, P11908
Description: as §1

PWP1, Q13610 = biological target: PWP1, Q13610
Description: as §1

RBM4, Q9BWF3 = biological target: RBM4, Q9BWF3
Description: as §1

RBM6, P78332 = biological target: RBM6, P78332
Description: as §1

RNF138, Q8WVD3 = biological target: RNF138, Q8WVD3
Description: as §1

RPUSD3, Q6P087 = biological target: RPUSD3, Q6P087
Description: as §1

[2] = substrate: SON, P18583
Description: as §1

TMEM201, Q5SNT2 = biological target: TMEM201, Q5SNT2
Description: as §1

TWF1, Q12792 = biological target: TWF1, Q12792
Description: as §1

VCL, P18206 = biological target: VCL, P18206
Description: as §1

WDR11, Q9BZH6 = biological target: WDR11, Q9BZH6
Description: as §1

SASCTFGGIWSSGVD [LINC01560]
PRISMA enrichment of interactor (log2) (C19orf53, Q9UNZ5): 6.84 | PRISMA enrichment of interactor (log2) (CHTOP, Q9Y3Y2): 5.43 | PRISMA enrichment of interactor (log2) [1]: 4.11 | PRISMA enrichment of interactor (log2) (GAR1, Q9NY12): 5.34 | PRISMA enrichment of interactor (log2) (POLDIP2, Q9Y2S7): 5.41 | PRISMA enrichment of interactor (log2) (ZNF22, P17026): 4.97

PLSEPPSDFLTSSPD [NAV2-AS2_2]
PRISMA enrichment of interactor (log2) (C19orf53, Q9UNZ5): 6.52 | PRISMA enrichment of interactor (log2) (CHMP2A, O43633): 4.35 | PRISMA enrichment of interactor (log2) (MUC19, Q7Z5P9): 7.95 | PRISMA enrichment of interactor (log2) (SCP2, P22307): 5.44

TPEELFHLLGADSQ [GLUT1_MUT_2]
PRISMA enrichment of interactor (log2) (BZW1, Q7L1Q6): 5.14 | PRISMA enrichment of interactor (log2) (C11orf98, E9PRG8): 4.79 | PRISMA enrichment of interactor (log2) (C19orf53, Q9UNZ5): 6.78 | PRISMA enrichment of interactor (log2) (CHTOP, Q9Y3Y2): 6.3 | PRISMA enrichment of interactor (log2) (CLTA, P09496): 6.65 | PRISMA enrichment of interactor (log2) (CLTB, P09497): 5.84 | PRISMA enrichment of interactor (log2) (CLTC, Q00610): 5.04 | PRISMA enrichment of interactor (log2) (CLTCL1, P53675): 3.91 | PRISMA enrichment of interactor (log2) (CSNK1A1, P48729): 5.13 | PRISMA enrichment of interactor (log2) (CXorf56, Q9H5V9): 4.69 | PRISMA enrichment of interactor (log2) (DECR1, Q16698): 5.66 | PRISMA enrichment of interactor (log2) (EMG1, Q92979): 4.88 | PRISMA enrichment of interactor (log2) (EXOSC4, Q9NPD3): 5.17 | PRISMA enrichment of interactor (log2) (FAM83D, Q9H4H8): 4.44 | PRISMA enrichment of interactor (log2) (FOCAD, Q5VW36): 4.38 | PRISMA enrichment of interactor (log2) (GABARAPL2, P60520): 5.38 | PRISMA enrichment of interactor (log2) (MAGEB2, O15479): 5.28 | PRISMA enrichment of interactor (log2) (MORF4L2, Q15014): 5.04 | PRISMA enrichment of interactor (log2) (MRPL27, Q9P0M9): 7.86 | PRISMA enrichment of interactor (log2) (MRPL34, Q9BQ48): 4.37 | PRISMA enrichment of interactor (log2) (NCAPH, Q15003): 4.73 | PRISMA enrichment of interactor (log2) (NOL9, Q5SY16): 4.22 | PRISMA enrichment of interactor (log2) (PLS3, P13797): 4.9 | PRISMA enrichment of interactor (log2) (PYCR1, P32322): 5.67 | PRISMA enrichment of interactor (log2) (PYCR2, Q96C36): 5.21 | PRISMA enrichment of interactor (log2) (RPS19BP1, Q86WX3): 4.76 | PRISMA enrichment of interactor (log2) (TFB2M, Q9H5Q4): 6.24 | PRISMA enrichment of interactor (log2) (URB1, O60287): 5.92

MNALASLTVRTCDRF [PPP1R15A]
PRISMA enrichment of interactor (log2) (BZW1, Q7L1Q6): 7.65 | PRISMA enrichment of interactor (log2) (CCAR1, Q8IX12): 4.97 | PRISMA enrichment of interactor (log2) (CDC73, Q6P1J9): 5.78 | PRISMA enrichment of interactor (log2) (CGN, Q9P2M7): 5.19 | PRISMA enrichment of interactor (log2) (CHMP2A, O43633): 4.14 | PRISMA enrichment of interactor (log2) (COPG1, Q9Y678): 4.54 | PRISMA enrichment of interactor (log2) (CPS1, P31327): 5.66 | PRISMA enrichment of interactor (log2) (DUSP9, Q99956): 5.08 | PRISMA enrichment of interactor (log2) (ECD, O95905): 4.75 | PRISMA enrichment of interactor (log2) (ECPAS, Q5VYK3): 4.72 | PRISMA enrichment of interactor (log2) (EDC4, Q6P2E9): 6.78 | PRISMA enrichment of interactor (log2) (EIF2B1, Q14232): 4.55 | PRISMA enrichment of interactor (log2) (EIF4B, P23588): 4.64 | PRISMA enrichment of interactor (log2) (ETFB, P38117): 7.2 | PRISMA enrichment of interactor (log2) (FGF11, Q92914): 9.09 | PRISMA enrichment of interactor (log2) (FUBP1, Q96AE4): 7.64 | PRISMA enrichment of interactor (log2) (GRWD1, Q9BQ67): 4.76 | PRISMA enrichment of interactor (log2) (HERC2, O95714): 4.08 | PRISMA enrichment of interactor (log2) (KCNH1, O95259): 6.63 | PRISMA enrichment of interactor (log2) (KCTD12, Q96CX2): 3.94 | PRISMA enrichment of interactor (log2) (LEO1, Q8WVC0): 7.15 | PRISMA enrichment of interactor (log2) (MAGED2, Q9UNF1): 6.13 | PRISMA enrichment of interactor (log2) (MAP7D3, Q8IWC1): 4.94 | PRISMA enrichment of interactor (log2) (NCAPH, Q15003): 4.56 | PRISMA enrichment of interactor (log2) (NOP14, P78316): 4.58 | PRISMA enrichment of interactor (log2) (NPHS1, O60500): 6.32 | PRISMA enrichment of interactor (log2) (NUDC, Q9Y266): 4.42 | PRISMA enrichment of interactor (log2) (NUDT21, O43809): 7.9 | PRISMA enrichment of interactor (log2) (PRDX3, P30048): 5.48 | PRISMA enrichment of interactor (log2) (PRPS2, P11908): 4.12 | PRISMA enrichment of interactor (log2) (PWP1, Q13610): 4.68 | PRISMA enrichment of interactor (log2) (RBM4, Q9BWF3): 5.09 | PRISMA enrichment of interactor (log2) (RBM6, P78332): 5.16 | PRISMA enrichment of interactor (log2) (RNF138, Q8WVD3): 3.81 | PRISMA enrichment of interactor (log2) (RPUSD3, Q6P087): 7.87 | PRISMA enrichment of interactor (log2) [2]: 6.37 | PRISMA enrichment of interactor (log2) (TMEM201, Q5SNT2): 3.96 | PRISMA enrichment of interactor (log2) (TWF1, Q12792): 4.67 | PRISMA enrichment of interactor (log2) (VCL, P18206): 4.11 | PRISMA enrichment of interactor (log2) (WDR11, Q9BZH6): 4.31
